Source: PMC12921443
Results are given in words; binding and its absence hold for the method and conditions named. A result given as binding can be weak or reduced; the word gives no strength.

The chains behind the UniProt entries cited, without tags or fusion partners. Where a name states a change or a piece, a line headed by the entry shows the natural chain unless it says otherwise.
UniProt Q9S9Z2: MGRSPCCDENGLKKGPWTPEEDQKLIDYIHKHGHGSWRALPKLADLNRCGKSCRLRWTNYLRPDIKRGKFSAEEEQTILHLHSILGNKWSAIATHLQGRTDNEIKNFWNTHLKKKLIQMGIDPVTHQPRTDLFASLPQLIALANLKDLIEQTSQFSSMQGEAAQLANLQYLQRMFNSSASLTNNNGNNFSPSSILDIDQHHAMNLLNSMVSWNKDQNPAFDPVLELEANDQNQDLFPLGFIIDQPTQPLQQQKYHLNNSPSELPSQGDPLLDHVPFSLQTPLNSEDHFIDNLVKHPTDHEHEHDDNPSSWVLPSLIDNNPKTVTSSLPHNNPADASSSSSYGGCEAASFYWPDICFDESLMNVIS

Target: T1, MITOGEN … PROTEIN KINASE 3 (MPK3), full-length (Arabidopsis) (UniProt Q39023)
T1 sequence: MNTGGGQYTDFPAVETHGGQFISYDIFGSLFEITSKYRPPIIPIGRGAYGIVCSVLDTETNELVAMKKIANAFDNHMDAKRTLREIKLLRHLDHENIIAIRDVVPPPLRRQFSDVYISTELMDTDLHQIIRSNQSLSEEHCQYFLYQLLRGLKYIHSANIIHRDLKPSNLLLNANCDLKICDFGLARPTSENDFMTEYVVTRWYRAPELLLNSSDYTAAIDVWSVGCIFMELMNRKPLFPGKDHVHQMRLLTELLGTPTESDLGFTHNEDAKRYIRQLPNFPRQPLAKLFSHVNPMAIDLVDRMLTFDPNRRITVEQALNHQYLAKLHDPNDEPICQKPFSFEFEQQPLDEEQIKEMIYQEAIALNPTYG
Assay: two-hybrid; MYB93 constructs in pGADT7, MPK3 in pGBKT7; S. cerevisiae AH109; growth on SD -AHLW agar plates, 2-3 days at 30 °C; empty pGBKT7 as control

binding: binds
Substance: MYB93 N-terminal region (MYB93-R2R3) (from UniProt Q9S9Z2) (domain or fragment)
